{
  "source": "PubChem BioAssay AID2685",
  "about": "(National Center for Advancing Translational Sciences (NCATS), 2010)",
  "note": "Out of some 320,000 compounds screened, about 2,100 (0.66%) were called active. The shares of active, inactive and inconclusive entries below differ from those in the screen. Calls follow the shape of the dose curve; as a rule, active = well fitted inhibition curve with a large enough effect in the signal ratio, with a control signal flat (not every such curve was filed as active); inconclusive = small, poorly fitted or top-dose-only effect, or effect the other way, or a change in a side signal; inactive = flat fitted curve, though single readings scatter; the % refers to the signal ratio. A potency beside an inconclusive call is a rough fit, not a confirmed value. % is scaled to controls: 0 for no effect and ±100 for the full control effect; potency is read from the fitted curve at half-maximal effect.",
  "data": [
    {"test": "qHTS Assay for Lipid Storage Modulators in Drosophila S3 Cells", "settings": "BODIPY lipid droplet fluorescence, 18-24 h, cells fed with added oleic acid; lipid storage change, negative = inhibition: at 46.1 µM (top of the series) unless noted", "procedure,_shortened": "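Laser-scanning cytometry quantifies lipid droplet accumulation (500–530 nm total intensity; droplet/cell object ratio) in oleic acid-fed (400 uM added) Drosophila S3 cells treated with a concentration series. 20 uM Triacsin C defined 100% inhibition.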", "values": [
      {"smiles": "O=C(CCCC1=NS(=O)(=O)c2ccccc2N1)N1CCN(c2ccccc2)CC1", "lipid storage change, negative = inhibition": "inconclusive: 233%"},
      {"smiles": "O=C(COc1ccc(-c2ccccc2)cc1)N/N=C/c1ccccc1Br", "lipid storage change, negative = inhibition": "inconclusive: -8.5%"},
      {"smiles": "Cc1ccc(S(=O)(=O)Nc2ccc(S(=O)(=O)Nc3ncccn3)cc2)cc1", "lipid storage change, negative = inhibition": "inconclusive: -35.7%"},
      {"smiles": "Cc1cc(-c2n[nH]c(=S)n2/N=C/c2ccc(C)s2)n[nH]1", "lipid storage change, negative = inhibition": "inconclusive: 46.5%"},
      {"smiles": "COc1ccccc1/C=C/C=C1\\Oc2c(ccc(O)c2CN2CCN(CCO)CC2)C1=O", "Potency": "inconclusive: 7.31 µM [rising, partial curve]"},
      {"smiles": "N#CC1=C(N)Oc2cc(N)ccc2C1c1ccsc1", "note": "(centres undefined)", "Potency": "inconclusive: 18.4 µM [activator, single point]"},
      {"smiles": "CC(=O)c1ccc(N2CCN(c3ncccn3)CC2)cc1", "lipid storage change, negative = inhibition": "inconclusive: -2.37%"},
      {"smiles": "Cc1sc2ncnc(N[C@@H](CCC(=O)O)C(=O)O)c2c1C", "Potency": "inconclusive: 0.058 µM [falling, full curve, poor fit]"},
      {"smiles": "O=C(COc1ccc(Cl)cc1Cl)OCC(=O)c1ccc[nH]1", "lipid storage change, negative = inhibition": "inconclusive: 12.4%"},
      {"smiles": "O=C(O)c1cccc(NC2=C(N3CCOCC3)C(=O)c3ccccc3C2=O)c1", "lipid storage change, negative = inhibition": "inconclusive: -16.6%"},
      {"smiles": "Cc1cc(Cl)c2oc(C(=O)N(C)CCCN3CCOCC3)c(C)c2c1", "lipid storage change, negative = inhibition": "inconclusive: -5.53%"},
      {"smiles": "CCN(CC)CCN1C(=O)Cn2c(C)c(C)c3cccc1c32", "Potency": "inconclusive: 0.651 µM [falling, single point]"},
      {"smiles": "CCOc1ccc(N)c(SSc2cc(OCC)ccc2N)c1", "lipid storage change, negative = inhibition": "inconclusive: -110%"},
      {"smiles": "COc1ccc(-c2cc(-c3ccccc3)nc(-c3ccc4c(c3)NC(=O)CO4)c2)cc1", "Potency": "inconclusive: 29.1 µM [activator, single point]"},
      {"smiles": "CCn1c(SCc2ccc(F)cc2)nc2c(c1=O)SCC2", "lipid storage change, negative = inhibition": "inconclusive: 35.3%"},
      {"smiles": "c1ccc(-c2nc(NC3CC3)nc(-n3ccnc3)n2)cc1", "lipid storage change, negative = inhibition": "inconclusive: -10.6%"},
      {"smiles": "O=C(Nc1cccc(C(=O)Nc2cccc(Br)c2)c1)c1ccccc1", "Potency": "active: 5.8 µM"},
      {"smiles": "CNC(=S)N/N=C(\\C)c1ccc(N2CCOCC2)cc1", "lipid storage change, negative = inhibition": "inconclusive: -4.59%"},
      {"smiles": "O=C(OCc1nc2ccccc2s1)[C@@H]1CCCN1S(=O)(=O)c1ccccc1F", "Potency": "inconclusive: 1.03 µM [falling, full curve, poor fit]"},
      {"smiles": "CN1CCN(C(=O)c2ccc(C(C)(C)C)cc2)CC1", "lipid storage change, negative = inhibition": "inconclusive: 72.1%"},
      {"smiles": "Cc1ccc(C)c(OCC(=O)N2CCc3ccccc3C2)c1", "lipid storage change, negative = inhibition": "inconclusive: 20.8%"},
      {"smiles": "COc1ccc(CN(C)c2ncnc(N)n2)cc1", "Potency": "inconclusive: 13 µM [falling, partial curve, poor fit]"},
      {"smiles": "N#C/C(=C\\c1cccs1)C(=O)NCc1ccccc1", "lipid storage change, negative = inhibition": "inactive"},
      {"smiles": "Cc1ccc(NC(=O)CC(NC(=O)c2ccccc2Cl)c2ccccc2)nc1", "note": "(centres undefined)", "lipid storage change, negative = inhibition": "inactive"},
      {"smiles": "C#CCNC(=O)C1=C[C@H](C)[C@@H](CCCO)[C@H](OCC)O1", "lipid storage change, negative = inhibition": "inconclusive: -28.3%"},
      {"smiles": "CC(OC(=O)Cn1cnc2c1c(=O)n(C)c(=O)n2C)C(=O)Nc1ccc(Cl)cc1", "note": "(centres undefined)", "Potency": "inconclusive: 6.51 µM [activator, single point]"},
      {"smiles": "CCOC(=O)N1CCC(N2Cc3cccc(C(=O)NC(C)c4ccc5c(c4)OCCO5)c3C2=O)CC1", "note": "(centres undefined)", "lipid storage change, negative = inhibition": "inconclusive: -4.39%"},
      {"smiles": "C/C(N)=C(/C#N)C(=O)CSc1nnc(-c2ccc3c(c2)OCO3)o1", "lipid storage change, negative = inhibition": "inactive"},
      {"smiles": "O=C1c2ccccc2OCOc2ccccc21", "Potency": "inconclusive: 29.1 µM [falling, single point]"},
      {"smiles": "CN(C)CC(O)COc1ccc(-c2ccc(C#N)cc2)cc1", "note": "(centres undefined)", "Potency": "inconclusive: 29.1 µM [cytotoxic, single point]"},
      {"smiles": "Cc1ccc(S(=O)(=O)NC(CC(C)C)C(=O)Oc2ccc3c4c(c(=O)oc3c2)CCC4)cc1", "note": "(centres undefined)", "lipid storage change, negative = inhibition": "inconclusive: 42%"},
      {"smiles": "COc1cc(C(=O)NC2CCN(Cc3ccccc3)CC2)cc(Cl)c1OC", "lipid storage change, negative = inhibition": "inconclusive: 13.9%"},
      {"smiles": "Cc1ccc(NC(=O)COc2ccc(/C=C3/SC(=Nc4ccccc4)N(Cc4cccnc4)C3=O)cc2)cc1", "lipid storage change, negative = inhibition": "inconclusive: 21.8%"},
      {"smiles": "Cc1ccc(S(=O)(=O)N(C)CCCC(=O)Nc2ccncc2)cc1", "Potency": "inconclusive: 9.2 µM [activator, partial curve]"},
      {"smiles": "Cc1cccc(/C=C/C(=O)c2ccc(N3CCOCC3)cc2)c1", "lipid storage change, negative = inhibition": "inconclusive: 29.6%"},
      {"smiles": "O=C(NCc1ccccn1)c1ccc(N2CCCC2=O)cc1", "lipid storage change, negative = inhibition": "inconclusive: 16.4%"},
      {"smiles": "COCCCN(C(=O)c1cc(C)oc1C)c1c(N)n(CC(C)C)c(=O)[nH]c1=O", "Potency": "inconclusive: 16.4 µM [activator, partial curve]"},
      {"smiles": "Nc1n[nH]c(N)c1N=Nc1cccc(C(F)(F)F)c1", "lipid storage change, negative = inhibition": "inconclusive: -10.9%"},
      {"smiles": "CC1(C)C(c2cccs2)=NC(c2ccccc2)N1O", "note": "(centres undefined)", "lipid storage change, negative = inhibition": "inconclusive: 14%"},
      {"smiles": "COc1ccc(C)cc1S(=O)(=O)NCC(c1ccco1)N1CCc2ccccc2C1", "note": "(centres undefined)", "lipid storage change, negative = inhibition": "inconclusive: 31.3%"},
      {"smiles": "CCOc1ccc(C(=O)Nc2cc3c(cc2N2CCCC2)n(CC)c(=O)n3CC)cc1OCC", "Potency": "inconclusive: 0.461 µM [falling, full curve, poor fit]"},
      {"smiles": "O=C(Cn1nnc(-c2ccccc2)n1)N/N=C/c1ccco1", "lipid storage change, negative = inhibition": "inconclusive: 8.66%"},
      {"smiles": "CCOC(=O)c1cccc(NC(=O)CCS(=O)(=O)c2cccs2)c1", "Potency": "inconclusive: 0.326 µM [activator, partial curve, poor fit]"},
      {"smiles": "CCOC(=O)COc1ccc(S(=O)(=O)NCc2cccnc2)cc1", "lipid storage change, negative = inhibition": "inconclusive: -5.14%"},
      {"smiles": "CN1C(=O)C2(Nc3ccccc3-c3nc4ccccc4n32)c2ccccc21", "note": "(centres undefined)", "Potency": "inconclusive: 29.1 µM [falling, single point]"},
      {"smiles": "COc1ccc(N(CC(=O)NCc2ccco2)S(=O)(=O)c2c(C)nn(C)c2C)cc1", "lipid storage change, negative = inhibition": "inconclusive: 64.7% [activator]"},
      {"smiles": "CCCc1cc(=O)oc2cc(C)cc(OCC(=O)N[C@@H](CSCc3ccccc3)C(=O)O)c12", "lipid storage change, negative = inhibition": "inconclusive: -21.5%"},
      {"smiles": "CC(OC(=O)C1=Cc2ccccc2OC1)C(=O)NC1CCCC1", "note": "(centres undefined)", "Potency": "inconclusive: 1.84 µM [activator, partial curve]"},
      {"smiles": "O=C(Nc1ccccc1Cl)c1ccccc1Cc1ccccc1", "lipid storage change, negative = inhibition": "inconclusive: -9.18%"},
      {"smiles": "COC(=O)c1ccc(NC(=O)c2cc(-c3ccncc3)nc3ccccc23)cc1", "lipid storage change, negative = inhibition": "inconclusive: 1.06%"},
      {"smiles": "Cc1ccc([N+](=O)[O-])cc1-c1ccc(/C=C(\\C#N)c2[nH]nc(N)c2C#N)o1", "lipid storage change, negative = inhibition": "inconclusive: -23.4%"},
      {"smiles": "CC(C)CCn1c(CN(C)Cc2ccccc2)nc2c1c(=O)n(C)c(=O)n2C", "lipid storage change, negative = inhibition": "inactive"},
      {"smiles": "Oc1cccc(NC(=S)Nc2ccccc2)c1", "lipid storage change, negative = inhibition": "inconclusive: 14.6%"},
      {"smiles": "O=C(NCc1cccs1)C1CCC(CNS(=O)(=O)c2ccccc2)CC1", "note": "(centres undefined)", "lipid storage change, negative = inhibition": "inconclusive: -10.4%"},
      {"smiles": "Cc1cc(S(=O)(=O)/N=C(\\N)c2ccc(C(N)=O)cc2)cc(C)c1F", "lipid storage change, negative = inhibition": "inconclusive: 24.5%"},
      {"smiles": "C/C(=N\\NC(=O)c1ccc(O)cc1)c1ccc2c(c1)Nc1ccccc1S2", "lipid storage change, negative = inhibition": "inconclusive: -22.5%"},
      {"smiles": "O=C(Nc1c(-c2ccccc2)nc2ccccn12)c1cccs1", "lipid storage change, negative = inhibition": "inconclusive: 19.8%"},
      {"smiles": "O=C(CCCOc1ccc(Cl)cc1Cl)N1CCc2ccccc2C1", "Potency": "inconclusive: 20.6 µM [falling, single point]"},
      {"smiles": "COc1ccc(/C=C2\\SC(=O)N=C2N)cc1OC", "Potency": "inconclusive: 25.9 µM [activator, partial curve, poor fit]"},
      {"smiles": "CCNc1nc(C(=O)O)nc(N2CCOCC2)n1", "lipid storage change, negative = inhibition": "inconclusive: -36.6%"},
      {"smiles": "COc1ccc2c(-c3ccccc3)cc3nnnn3c2c1", "lipid storage change, negative = inhibition": "inconclusive: 15.2%"},
      {"smiles": "Cc1cccc(NC(=O)Cn2cc(C=O)c3ccccc32)c1", "lipid storage change, negative = inhibition": "inconclusive: -105%"},
      {"smiles": "O=C(NCc1ccccc1)C1CCC(=O)N(CCCN2CCCC2=O)C1", "note": "(centres undefined)", "lipid storage change, negative = inhibition": "inconclusive: 2.95%"},
      {"smiles": "O=C(COC(=O)Cc1c(Cl)cccc1Cl)NCCC1=CCCCC1", "Potency": "inconclusive: 1.46 µM [falling, full curve]"},
      {"smiles": "c1ccc2[nH]c(SCc3ccc(-c4nnco4)cc3)nc2c1", "lipid storage change, negative = inhibition": "inconclusive: 94.5%"},
      {"smiles": "Cc1cc(C)cc(OCC(=O)NNC(=O)c2ccccn2)c1", "Potency": "inconclusive: 1.46 µM [falling, full curve]"},
      {"smiles": "CC(C)(C)c1ccc(C(=O)NCCC(=O)Nc2ccc3c(c2)OCCO3)cc1", "lipid storage change, negative = inhibition": "inconclusive: -64.9%"},
      {"smiles": "O=C(C1CC1)N1CCc2cc(S(=O)(=O)NCc3ccccc3)ccc21", "lipid storage change, negative = inhibition": "inconclusive: -27.8%"},
      {"smiles": "COc1ccc(N2CC(C(=O)N/N=C/c3ccc(C)cc3)CC2=O)cc1", "note": "(centres undefined)", "Potency": "inconclusive: 6.51 µM [falling, single point]"},
      {"smiles": "O=C1CCN(CCc2ccccc2)CCN1[C@H](COc1ccccc1)c1ccccc1", "Potency": "inconclusive: 29.1 µM [falling, single point]"},
      {"smiles": "O=C(NCCNC(=O)c1ccccc1Br)c1cccnc1", "Potency": "inconclusive: 29.1 µM [activator, single point]"},
      {"smiles": "COc1ccccc1CNC(=O)C1CCN(S(C)(=O)=O)CC1", "lipid storage change, negative = inhibition": "inconclusive: 8.57%"},
      {"smiles": "CCCC(=O)N(CCN1CCOCC1)c1nc2c(C)ccc(C)c2s1", "lipid storage change, negative = inhibition": "inconclusive: -183%"},
      {"smiles": "Cc1nc2ccccc2n1CCN1CCOCC1", "lipid storage change, negative = inhibition": "inconclusive: -24.3%"},
      {"smiles": "COCCOc1ccc(C(F)(F)F)cc1Nc1nc2ccccc2o1", "Potency": "inconclusive: 6.51 µM [activator, partial curve]"},
      {"smiles": "COc1ccc(C(=O)NCCN2CCCC2)cc1", "lipid storage change, negative = inhibition": "inconclusive: 17.2%"},
      {"smiles": "COc1ccc(N/C=C2\\CCOC2=O)cc1", "lipid storage change, negative = inhibition": "inconclusive: 43.3%"},
      {"smiles": "CC(NC(=O)c1ccco1)c1ccc2c(c1)OCO2", "note": "(centres undefined)", "Potency": "inconclusive: 20.6 µM [falling, single point]"},
      {"smiles": "COc1ccc(Nc2nc3c([nH]2)c(=O)[nH]c(=O)n3C)cc1", "Potency": "inconclusive: 0.231 µM [falling, full curve]"}
    ]}
  ]
}
